PubChem BioAssay AID1259424 – University of Nebraska Medical Center, 2018
Purpose: 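Rank knockdowns across the genome by resemblance to the KSR1 depletion profile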 (primary screen). Cell system: human HCT116 colon cancer cells. Reagents: siRNA pool against human genes, 50 nM. Read-out: 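Log2 levels of six mRNAs (branched-DNA multiplex), adjusted by two reference genes and the non-targeting median, then scored against the average KSR1 knockdown pattern as Pearson r and euclidean distance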. Direction: mean correlation with KSR1 profile and KSR1 correlation: higher = expression change more like KSR1 knockdown; mean distance from KSR1 profile: higher = expression change less like KSR1 knockdown.
Shown is an unselected part of about 14,000 reagents. 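Higher correlation or smaller distance means closer resemblance to KSR1 loss; control wells, including KSR1 knockdowns, recur on many plates.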 Not all columns of the deposit are shown. No sequences are given here. Not stated in the record: the time to read-out.

Gene	PubChem SID	mean correlation with KSR1 profile	mean distance from KSR1 profile	KSR1 correlation, replicate 1
ZNF180 (GeneID 7733)	SID363998380	0.156	2.32	0.259
SRP68 (GeneID 6730)	SID363998669	-0.357	2.25	-0.114
CIAO2A (GeneID 84191)	SID364003842	0.586	1.22	0.552
CNPY2 (GeneID 10330)	SID363998692	-0.62	2.37	-0.524
ITK (GeneID 3702)	SID363996446	-0.157	2.08	-0.231
WFDC2 (GeneID 10406)	SID363996945	-0.223	2.19	-0.33
SASH3 (GeneID 54440)	SID364001311	-0.563	3.02	-0.668
MAD2L1 (GeneID 4085)	SID363993541	-0.397	3.79	-0.491
CXCR5 (GeneID 643)	SID363992937	0.667	1.15	0.613
PDCD10 (GeneID 11235)	SID363997913	-0.2	2.51	-0.355
CPB2 (GeneID 1361)	SID363993085	0.919	1.53	0.641
RNF114 (GeneID 55905)	SID364001177	0.273	1.82	0.135
GOPC (GeneID 57120)	SID364001663	0.13	1.44	-0.0414
KCNG2 (GeneID 26251)	SID363998200	-0.89	2.45	-0.835
RNPS1 (GeneID 10921)	SID363997491	0.742	3.18	0.676
RPA2 (GeneID 6118)	SID363994097	-0.649	1.18	-0.502
H2AJ (GeneID 55766)	SID364000928	0.0694	2.11	0.264
YWHAH (GeneID 7533)	SID363994513	0.221	1.48	0.389
ZSCAN10 (GeneID 84891)	SID364004185	0.584	2.28	0.54
C4BPB (GeneID 725)	SID363992013	-0.139	2.49	-0.0953
SOCS5 (GeneID 9655)	SID363998547	-0.524	3.16	-0.00668
PLEKHA6 (GeneID 22874)	SID363999207	-0.528	3.5	-0.256
AAR2 (GeneID 25980)	SID363999541	-0.488	3	-0.15
NXPH1 (GeneID 30010)	SID364004744	-0.725	2.63	-0.69
ADIPOR1 (GeneID 51094)	SID363999784	0.874	0.739	0.875
ERH (GeneID 2079)	SID363995432	-0.166	2.08	-0.162
SLC6A5 (GeneID 9152)	SID363995211	-0.0806	1.77	0.149
NMRK1 (GeneID 54981)	SID364000610	-0.778	3.64	-0.836
GGT1 (GeneID 2678)	SID363996185	0.221	3.2	0.291
MADD (GeneID 8567)	SID363994757	-0.26	1.94	-0.416
MIB1 (GeneID 57534)	SID364001820	0.0302	1.08	-0.15
USP45 (GeneID 85015)	SID364005471	0.586	2.29	0.578
CBFA2T3 (GeneID 863)	SID363996113	-0.00764	1.87	-0.105
IFNGR1 (GeneID 3459)	SID363991747	-0.00461	1.33	-0.0988
